# Assay results from PubChem BioAssay AID445 (National Center for Advancing Translational Sciences (NCATS), 2006).
# Some of the results follow. Further columns of the screen follow, without active or inactive calls. Most of these compounds were active or inconclusive in the main read-out, so they are no random draw. Words in brackets tell the shape of the fitted curve; partial curves, single points and poor fits give uncertain potencies.
# Test: IkB Signaling
# Settings: ABC-DLBCL IkBa-CBG/CBR dual luciferase ratio (green luciferase fused to IkBa over red control in OCI-Ly3 lymphoma cells), 4 h
# In short: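 Luminescence ratio of IκBα-fused green versus native red beetle luciferase in OCI-Ly3 cells, 4 h post-doxycycline with compound; red signal alone, scaled from basal (0%) to zero light (-100%), flagged nonspecific or cytotoxic effects.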
# [1] = measured here: control luc red channel unless noted
# [2] = measured here: IkB-luc green channel
# [3] = measured here: control luc red channel
smiles,measurement,setting,value
CCOC(=O)Cn1nnnc1CN(Cc1ccc(OC)cc1)Cc1cc2cc(CC)ccc2[nH]c1=O,AC50,[1],"12.6 µM [falling, partial curve]"
COc1ccccc1NS(=O)(=O)c1cc2c(cc1Cl)NC(=O)CO2,AC50,[1],"25.1 µM [falling, single point]"
CCOc1ccc(CCNC(=O)CSc2cc(=O)n(C)c3ccc(Cl)cc23)cc1OCC,AC50,[1],"10 µM [falling, partial curve]"
CCCc1cnc2c(c1SCc1ccc(C(F)(F)F)cc1)c(=O)n(C)c(=O)n2C,AC50,[1],"5.01 µM [falling, partial curve]"
CN(C)S(=O)(=O)c1cccc(C(=O)Nc2cc(Cl)ccc2O)c1,AC50,[1],"39.8 µM [falling, single point]"
Cc1ccc(NC(=O)CSc2ccc(-c3sc(-c4ccccc4)nc3C)nn2)cc1F,AC50,[1],"7.94 µM [falling, full curve]"
COc1ccc(-c2nnn(Cc3nc(N)nc(N4CCCCC4)n3)n2)cc1,AC50,[1],"12.6 µM [falling, partial curve]"
Cc1cccc(N2CCN(C(=O)CCSCc3ccccc3F)CC2)c1C,AC50,[1],"39.8 µM [falling, single point]"
COc1ccccc1N1CCN(C(=O)Cn2ncc3c(=O)oc4ccc(C)cc4c32)CC1,AC50,[1],"12.6 µM [falling, partial curve]"
CN(C)S(=O)(=O)c1ccc(C(=O)Nc2ccc(-n3nncc3-c3ccccc3)cc2)cc1,AC50,[1],"31.6 µM [falling, single point]"
O=C(COC(=O)c1c2c(nc3ccccc13)CCCC2)Nc1ccc2c(c1)OCO2,AC50,[1],"12.6 µM [falling, partial curve]"
CCCc1[nH][nH]c(=O)c1C(c1ccccc1)C(C#N)C#N (stereo unspecified),AC50,[1],"39.8 µM [rising, single point] [measured here: IkB-luc green channel]"
CCCCNC(=O)c1cnn2c(C)c(Cc3c(F)cccc3Cl)c(C)nc12,AC50,[1],"39.8 µM [falling, partial curve]"
COc1ccc(-c2cc(C(=O)N3CCN(c4ccccn4)CC3)c3ccccc3n2)cc1,AC50,[1],"7.94 µM [falling, partial curve]"
COc1ccc(Cc2nccc3cc(OC)c(OC)cc23)cc1OC,AC50,[1],"39.8 µM [rising, single point] [measured here: IkB-luc green channel]"
Cc1nc2cc(NC(=O)N(C)c3ccc4ccccc4c3)ccc2o1,AC50,[1],"20 µM [falling, partial curve]"
O=C1NCCCc2c1oc1cc(Br)c(O)c(Br)c21,AC50,[1],"25.1 µM [falling, single point]"
CCOC(=O)c1ccccc1NC(=O)CSc1nnc(COc2ccccc2)n1CC,AC50,[1],"25.1 µM [falling, partial curve]"
CN1CCN(c2cc3c(c4c2[nH]c2ccccc24)C(=O)CC(C)(C)C3)CC1,AC50,[1],"25.1 µM [falling, partial curve]"
COc1ccc(OC)c(CCNC(=O)c2c(C)oc3ncn(C)c(=O)c23)c1,AC50,[1],"0.2 µM [falling, full curve, poor fit]"
CCc1cccc(NC(=O)CCc2nc(-c3cccs3)no2)c1,AC50,[1],"25.1 µM [falling, single point]"
CC1CCc2c(C(=O)Oc3cccc(-n4cnnn4)c3)csc2C1 (stereo unspecified),AC50,[1],"10 µM [falling, partial curve]"
CCOc1ccc(CN2CCN(c3ncnc4sc5c(c34)CC(C)CC5)CC2)cc1 (stereo unspecified),AC50,[1],"39.8 µM [falling, single point]"
COc1ccccc1C(=O)Nc1nnc(S(=O)(=O)N(C)c2ccc(Cl)cc2)s1,AC50,[1],"25.1 µM [falling, single point]"
Cc1nc2sc(C(c3cccs3)N3CCOCC3)c(O)n2n1 (stereo unspecified),AC50,[2],"10 µM [rising, partial curve]"
same,AC50,[3],"3.16 µM [falling, full curve]"
COc1ccc(Cl)cc1NC(=O)c1ccc2c(c1)CCCN2S(C)(=O)=O,AC50,[1],"25.1 µM [falling, partial curve]"
O=c1cnc2cncnc2n1Cc1ccccc1Cl,AC50,[1],"6.31 µM [rising, single point] [measured here: IkB-luc green channel]"
O=C(NCCSc1c(-c2ccccc2)[nH]c2ccccc12)c1ccc(S(=O)(=O)N2CCOCC2)cc1,AC50,[1],"3.16 µM [falling, full curve]"
Cc1ccccc1OCc1ccc(-c2nc(C#N)c(N3CCC(C(N)=O)CC3)o2)o1,AC50,[1],"5.01 µM [rising, partial curve]"
CC(=O)Nc1ccc(S(=O)(=O)NCCS(=O)(=O)N2CCN(c3ccccc3F)CC2)cc1,AC50,[1],"25.1 µM [falling, single point]"
CCOc1ccc2c(c1)c(=O)c(S(=O)(=O)c1ccc(Cl)cc1)cn2Cc1ccccc1C,AC50,[1],"12.6 µM [falling, partial curve]"
COc1ccc(CCNc2oc(COc3ccccc3F)nc2C#N)cc1OC,AC50,[2],"25.1 µM [falling, partial curve]"
same,AC50,[3],"25.1 µM [falling, partial curve]"
N#Cc1nc(COc2cccc(Cl)c2)oc1NCc1ccncc1,AC50,[1],"12.6 µM [falling, partial curve]"
Cc1ccccc1-c1nc(SCC(=O)N(C)c2ccccc2)c2c(=O)n(C)c(=O)n(C)c2n1,AC50,[1],"0.02 µM [falling, full curve, poor fit]"
COc1cc(NC(=O)CC2C(=O)N(c3cccc(C)c3)C(=O)N2Cc2cccs2)cc(OC)c1 (stereo unspecified),AC50,[1],"20 µM [falling, partial curve]"
Cc1cc(C)c(S(=O)(=O)NCCc2csc3nc(-c4ccc(Cl)cc4)nn23)c(C)c1,AC50,[1],"25.1 µM [falling, partial curve]"
O=c1c2c3c(sc2n(Cc2ccc(F)cc2Cl)c(=O)n1-c1ccc(Cl)cc1)CCC3,AC50,[1],"0.316 µM [rising, full curve]"
CC(=O)c1ccc(NC(=O)Cn2nc(C(F)(F)F)c3c2CCCC3)cc1,AC50,[1],"15.8 µM [falling, partial curve]"
CCSc1nn(CC(=O)Nc2cccc(Cl)c2)c(N)c1S(=O)(=O)c1ccc(OC)cc1,AC50,[1],"25.1 µM [falling, partial curve]"

# Looked up one by one from above (3):
smiles,measurement,setting,value
O=C1NCCCc2c1oc1cc(Br)c(O)c(Br)c21,AC50,[1],"25.1 µM [falling, single point]"
O=C(COC(=O)c1c2c(nc3ccccc13)CCCC2)Nc1ccc2c(c1)OCO2,AC50,[1],"12.6 µM [falling, partial curve]"
COc1ccccc1C(=O)Nc1nnc(S(=O)(=O)N(C)c2ccc(Cl)cc2)s1,AC50,[1],"25.1 µM [falling, single point]"
